This passage reports z-score results from PubChem BioAssay AID1347423 (Functional Genomics Laboratory (NCATS/FGL), 2020).

Out of some 52,000 sequences screened, about 210 (0.4%) were called active.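 Rule for the calls: active = gene whose silencing raises cell survival under the drug, median off-target-corrected z-score across its silencing RNAs 2 or more; inactive = the rest.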 The list shows a part of the results.

The assay in a line: Resistance to Poly (ADP-Ribose) Polymerase inhibitor: Gene Identification via Genome-wide siRNA Screen. The note with it: mouse BRCA2 R2336H ES cells, olaparib, CellTiter-Glo viability; stronger effect = higher value. The essentials:
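Genome-wide siRNA screen (3 siRNAs/gene, 20 nM) in mouse ES cells carrying hypomorphic BRCA2 R2336H; olaparib 500 nM added 48 h post-transfection, CellTiter-Glo viability 72 h later. Normalized to plate-median negative control; MAD z-scores, gene median, seed-adjusted.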
Turning to CCACAGUGAUUACGAUUAUTT against Mcpt2, the z-score is inactive: 0.474. As for GUUGGUAGAUUCAGUUUUCTT against V1rj2, the figure is inactive: 0.201; as for GGUGAGAAGCAAACUUUCATT against Ggps1, inactive: -1.66; as for GGCGUGCACACUAAACUGGTT against Nisch, inactive: 1.21. The same measure for GGCCAGACACAGGUAGACATT against BC028440: inactive: -0.7; for GGUCUAUCCAGGAAAAUGGTT against Uxs1: inactive: 0.621. As for GGUACAGCGGAGAUGUACATT against Nqo2, the figure is inactive: 1.07; as for GGCUCAAGCACAUAGGAUCTT against Pdlim4, inactive: 1.46; as for CCAACUCUGUUACAUUAUGTT against Fshprh1, inactive: 0.377. As for GGCAGAGAAAUGGGCAAUGTT against Gpr81, the z-score is inactive: 0.277. Regarding AGGUUAUUAACAGAUCUCUTT against Olfr1112, the z-score is inactive: 0.151.

On to GGUGGACUCCAGAGUUUAUTT against Polr2h, for which the z-score was inactive: -2.57. Regarding “GGCUGUAAUGACGAAUACATT against C330023M02Rik”, the z-score was inactive: -1.02. As for “GGGACAACGCACUCCAACATT against 1810024B03Rik”, the z-score is inactive: 1.17. Turning to “GGCCUAAUUAGUUACUUCUTT against A630035I11Rik”, the z-score is inactive: 2.92. As for GGGUUUCCAGUACCUCAAUTT against Serpina6, the figure is inactive: -0.847; as for GGAACCACAUCUCAGCAGGTT against Hsn2, inactive: 0.189. Take “CCGGCUAGAAACCGUGAAUTT against 9530051K01Rik”: the z-score was inactive: -0.591. The same measure for GGAACAUUGUCUUAAGCAATT against Echdc3: inactive: -0.41; for GGCUGACUCUUAGAAAGGGTT against Siah1a: inactive: -0.961; for “CCAAAUAGCAGUAUCAGGATT against D430028G21Rik”: inactive: -0.344. As to GGAAGUUAAUGGGUAAAGUTT against Olfr365, the z-score is inactive: -0.192.

Take GGAAUAUCACUUCCAUACATT against Ntrk3: the z-score was inactive: 1.54. As for “GGCAGAAUUCUUGAGAGAUTT against 1700024D23Rik”, the figure is inactive: 1.36; as for GGCCAAACAAGACAUUCAGTT against Slmap, inactive: -0.476. Regarding CCAGAAAACCAAACAACAGTT against Olfr1357, the z-score was inactive: -0.522. The same measure for “GGGCUGAAAAAGGAACUGCTT against 0610037D15Rik”: inactive: 0.309; for “GGAUAAAGGCCUGAGCGAUTT against D8Ertd594e”: inactive: 0.581. As for CGAGCUUGCUAUCGGGAAGTT against Defb7, the z-score is inactive: -1.54. For GGUCAGUGGAGCUCUCUAUTT against AI429612, the z-score is inactive: 1.61. As for GGCAAAGGCUAUCGCUCACTT against Smpd2, the figure is inactive: 0.456. As for CGGCACCUACUUCAUCUAUTT against Eda, the figure is inactive: 0.81; as for CCUAAAUCCUCUAUUUUGGTT against Fmn2, inactive: 0.0509; as for UCUUAUGCCUUGGUGCUCATT against Olfr746, inactive: -0.337. As for CCUGCUCAUUGCAGUGACGTT against Olfr1243, the figure is inactive: 0.695; as for “GGACAAGCAACUGAAUGAGTT against D930010J01Rik”, inactive: -0.286.

For the sequence GGUUUGAUUAUACCUAUCATT against Odz2, the z-score is inactive: -1.79. As for GGAUGGAACAUAUGAUUAGTT against V1rf1, the figure is inactive: -0.109; as for GGUUCAGCUGGUCCUAUCUTT against Olfr1099, inactive: 0.067; as for GCAUUUGUAGUUAUUUCACTT against C1d, inactive: 0.875. In the case of “GGAAGAGUGUACCAGUGUUTT against 2610001E17Rik”, the z-score was inactive: 0.78. The same measure for “GGACUACAUAAGGAAGGUUTT against 4930527D15Rik”: inactive: -0.0493; for GGGAAAGAUAAUGGCCUGCTT against Tnfrsf23: inactive: -0.849; for CCAGCUAAACUCUGUAAAATT against Zfp639: inactive: -1.21. In the case of ACCAGUAUGGCUUAAAGACTT against Bglap-rs1, the z-score was inactive: 0.974.

Turning to GGUUCUGGGACUUAACAAATT against Rgs12, the z-score is inactive: -0.39.

As to GGAGCUGGAAAGUUACCGATT against Dhrs6, the z-score is inactive: 1. The same measure for GCUGGAUCACCGUUAUAAUTT against Wdr17: inactive: 0.178; for CGAUUCCAUUCUUAACAUATT against Crlf3: inactive: 0.348; for GGGUACCCUAGCUCUGUUATT against Timp2: inactive: -0.165.

As to “GGGAUUGCAUGGUUAAACUTT against 4921501M20Rik”, the z-score is inactive: -0.607. As for CCCUAUAAAGAGAAAUUGGTT against Gm1008, the figure is inactive: 1. For GGAAAGAGUAAUAAUUGUCTT against Cyp1b1, the z-score is inactive: -0.222. The same measure for GGAGAACAACAGUAAUUACTT against Reps2: inactive: -2.31; for GGACCUGCAUUCUAAAUCATT against Gm1960: inactive: 1.28; for GGCUAAAGUUGACAGCCAATT against Cd52: inactive: -0.759. The same measure for GGGACCAAUGUUCCAGGAATT against Ms4a4b: inactive: 0.375; for GGCUAUGAGGACUAUCUGUTT against Dmbt1: inactive: -0.181; for GGAAUUCUAUGGUCUAACGTT against Usp46: inactive: 2.95.

Regarding GUCCCAGUACCUCUUUCUUTT against V1rc17, the z-score is inactive: -0.448. The same measure for CGUUGCUUCUCCAUUGAGCTT against Cdh24: inactive: 0.0418; for GGUAUCAGUACUUUUUGCATT against Ptpn4: inactive: -0.911; for GGAAGUGGCCCUUAAAAGGTT against Osbpl3: inactive: -0.324. As for GGAAAAUUACAGAAUUGGATT against Dnali1, the figure is inactive: 1.21; as for GGACAUGGACAUCCUGAACTT against Slc29a3, inactive: 0.142. As for GGUGCCUCAGAGUAAAUAUTT against Cdk2ap1, the figure is inactive: -2.74.
